Laboratory results published in PubChem BioAssay AID1671190 (National Center for Advancing Translational Sciences (NCATS), 2021).
Screen size: about 580,000 compounds; about 6,100 (1.1%) were called active. Inconclusive means that the source gave no clear call. Such entries were picked first, then a sample of the others. Calls follow the shape of the dose curve; as a rule, active = well fitted inhibition curve with a large enough effect; inconclusive = small, poorly fitted or top-dose-only effect, or another doubt; inactive = no such curve, though single readings can be large or run the other way. Potencies beside an inconclusive call are fits to weak or partial responses and may not hold up.

Amino acid sequences for entries named in this document (tags omitted). A change or cut given only in a name is not applied to a line headed by its entry.
UniProt P18054: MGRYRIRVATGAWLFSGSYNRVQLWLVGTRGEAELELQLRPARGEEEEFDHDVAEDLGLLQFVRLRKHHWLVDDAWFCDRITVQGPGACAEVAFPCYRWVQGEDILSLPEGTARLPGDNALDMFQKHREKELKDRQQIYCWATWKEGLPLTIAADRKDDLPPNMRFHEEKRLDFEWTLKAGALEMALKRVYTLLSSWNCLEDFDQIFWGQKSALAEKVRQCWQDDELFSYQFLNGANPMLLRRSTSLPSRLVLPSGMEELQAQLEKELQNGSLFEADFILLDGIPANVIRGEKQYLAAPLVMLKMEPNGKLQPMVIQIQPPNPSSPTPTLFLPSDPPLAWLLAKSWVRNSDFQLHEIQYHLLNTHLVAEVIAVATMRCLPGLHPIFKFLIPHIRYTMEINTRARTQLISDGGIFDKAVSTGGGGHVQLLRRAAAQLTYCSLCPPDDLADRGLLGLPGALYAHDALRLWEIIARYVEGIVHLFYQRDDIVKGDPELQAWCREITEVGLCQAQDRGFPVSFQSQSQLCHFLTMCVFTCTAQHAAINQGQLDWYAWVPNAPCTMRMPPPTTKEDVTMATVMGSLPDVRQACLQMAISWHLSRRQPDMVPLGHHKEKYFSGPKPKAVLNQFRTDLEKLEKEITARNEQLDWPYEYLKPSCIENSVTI

What follows are compounds tested against Polyunsaturated fatty acid lipoxygenase ALOX12 (Homo sapiens) (UniProt P18054) (assay: Primary qHTS assay for inhibitors of human arachidonate 12S-lipoxygenase (ALOX12): Round 2). Conditions: purified 12hLO, xylenol orange hydroperoxide absorbance; activity change, negative = inhibition: at 108 µM (top of the series) unless noted.
Outline: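 Hydroperoxide product was detected by ferrous iron/xylenol orange as the 573 to 405 nm absorbance ratio. Arachidonic acid at 40 uM (final) was turned over for 30 min at room temperature by 150 nM human 12hLO, pH 7.0 Hepes buffer, after 15 min compound preincubation.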
% is scaled to controls: 0 for no effect and ±100 for the full control effect; potency is read from the fitted curve at half-maximal effect.

SMILES | activity change, negative = inhibition | Potency
N#Cc1c(SCC(=O)N2CCOCC2)nc(N2CCCC2)c2c1CCCC2 | inactive: -23.9% | 
CCCCOC(=O)c1ccc(NC(=O)c2c(Cl)ccc(Cl)c2OC)cc1 |  | inconclusive: 5.62 µM [inhibitor, full curve, poor fit]
COc1ccc(C)cc1NC(=O)CSc1nnc(COc2ccc(C)cc2)n1Cc1ccco1 | inactive: -24.4% | 
CCCCN(C)CCNC(=O)c1cc(-c2ccc(Cl)s2)nc2ccccc12 |  | inconclusive: 50.1 µM [inhibitor, partial curve, poor fit]
COc1cccc(-n2c(-c3cccc(S(=O)(=O)N(C)C)c3)n[nH]c2=S)c1 |  | inconclusive: 44.7 µM [inhibitor, partial curve, poor fit]
COC(=O)[C@@]1(Sc2ccc(C)cc2)CC(=O)N(C(=O)C2CC2)[C@@H]1c1ccccc1 |  | inconclusive: 39.8 µM [inhibitor, partial curve, poor fit]
CCOC(=O)Nc1sc2c(c1C(=O)OCC)CCC2 |  | inconclusive: 56.2 µM [inhibitor, partial curve, poor fit]
CC(C)c1cc(N=O)cc(C(C)C)c1O |  | inconclusive: 44.7 µM [inhibitor, partial curve, poor fit]
CCOC(=O)N1CCC(NC2CCCCCCC2)CC1 |  | inconclusive: 28.2 µM [inhibitor, partial curve, poor fit]
Cc1ccc(C)c(OC2=NS(=O)(=O)c3ccccc32)c1 |  | inconclusive: 10 µM [inhibitor, full curve, poor fit]
Cc1ccc(F)c(S(=O)(=O)NC(=O)C2(C)CCN2C(=O)C/C=C/c2ccccc2)c1 (stereo not drawn) |  | inconclusive: 44.7 µM [inhibitor, partial curve, poor fit]
O=C(Nc1ccc2[nH]c(=O)[nH]c2c1)c1nn(-c2ccccc2Cl)c2c1CCCC2 | inactive: -3.15% | 
O=C(Nc1ccccc1)c1cccc(CSc2cccc[n+]2[O-])c1 |  | inconclusive: 8.91 µM [inhibitor, full curve, poor fit]
CN(C(=O)CSc1ncnc2ccccc12)C1CCCCC1 | inactive: 26% | 
Cc1ccc(-c2noc(Cn3nc(C)c(S(=O)(=O)N4CCc5ccccc54)c3C)n2)cc1 | inactive: -1.88% | 
O=Cc1sc(=O)n(Cc2cccc(C(=O)O)c2)c1Cl | inactive: -20.6% | 
CCN1CCn2c3c(c4cc(Br)ccc42)CCCC31 (stereo not drawn) |  | inconclusive: 12.6 µM [inhibitor, partial curve, poor fit]
CN(C)c1nc(CN2CCCCC2c2cccnc2)nc2ccccc12 (stereo not drawn) | inconclusive: -36.8% [inhibitor] | 
CCCC1(CC)NC(=O)N(c2ccc(Br)cc2)N1 (stereo not drawn) |  | inconclusive: 50.1 µM [inhibitor, partial curve, poor fit]
CS/C(=N\S(=O)(=O)c1cccs1)Nc1ccc(F)cc1 | inactive: -16.4% | 
O=C(OCc1ccccc1Br)c1cc2ccccc2[nH]1 | inactive: -16.2% | 
COc1ccc(CNCc2c(F)cccc2F)cc1OC |  | inconclusive: 0.501 µM [inhibitor, full curve, poor fit]

SMILES | activity change, negative = inhibition | Potency
O=C(Nc1ccc(Nc2ccncc2)cc1)c1ccc(Nc2ccnc3ccc([N+](=O)[O-])cc23)cc1[N+](=O)[O-] |  | inconclusive: 79.4 µM [inhibitor, single point]
Cc1ccc(NC(=O)C(Nc2ccc3oc(C)nc3c2)c2ccccc2)cc1 (stereo not drawn) | inactive: 1.75% | 
O=C(N1CCOCC1)N1CCN(c2nc(-c3ccccc3)cs2)CC1 |  | inconclusive: 31.6 µM [inhibitor, partial curve, poor fit]
O=C(CC1C(=O)NCCN1Cc1ccoc1)NCCc1ccc(Cl)cc1 (stereo not drawn) |  | inconclusive: 28.2 µM [inhibitor, partial curve, poor fit]
CCCCc1c(-c2ccccc2OC)ncn1Cc1ccc(OC)c(Cl)c1 |  | inconclusive: 50.1 µM [inhibitor, partial curve, poor fit]
COc1ccc(CN2CCOc3nc(-c4ccc(O)c(F)c4)ncc3C2=O)cc1 |  | inconclusive: 35.5 µM [inhibitor, full curve, poor fit]
O=C(NCc1ccncc1)c1ccc(OCc2ccccc2)cc1 | inactive: 13.9% | 
Cc1ccc(CNC(=O)CSc2c(C(C)C)cnc3c2c(=O)n(C)c(=O)n3C)cc1 |  | inconclusive: 5.62 µM [inhibitor, full curve, poor fit]
CCOC(=O)c1cnn(-c2cc(C)nc3c(-c4ccc(F)cc4)cnn23)c1N |  | inconclusive: 44.7 µM [inhibitor, partial curve]
COc1ccc([C@H]2N[C@]3(CCCN(Cc4ccccc4)C3=O)[C@H]3C(=O)N(C)C(=O)[C@@H]23)cc1 |  | inconclusive: 14.1 µM [inhibitor, full curve]
O=C(Nc1ccc(O)cc1C(=O)O)c1cccs1 |  | inconclusive: 15.8 µM [inhibitor, partial curve, poor fit]
O=C(CNCC1CCCO1)N1CCCCCC1 (stereo not drawn) | inactive: -20.1% | 
COc1ccc(CNCc2ccco2)cc1OCc1ccccc1 |  | inconclusive: 0.891 µM [inhibitor, full curve, poor fit]
Cc1ccccc1OCCCN1CCC(C(O)(c2ccccc2)c2ccccc2)CC1 |  | inconclusive: 50.1 µM [inhibitor, partial curve, poor fit]
CCc1ccccc1NC(=O)Nc1ccc2snnc2c1 | inactive: -25.1% | 
COc1cccc(C(=O)N2C[C@@H](CO)[C@H](c3nc(C4CC4)no3)C2)c1 | inactive: -8.9% | 
O=[N+]([O-])c1cccc(S(=O)(=O)c2ccc(NCCO)c([N+](=O)[O-])c2)c1 |  | inconclusive: 44.7 µM [inhibitor, partial curve]
CC(=O)c1cn(-c2ccc(Cl)cc2)c(=O)n(Cc2ccc(F)cc2)c1=O | inactive: -10.7% | 
COCC(=O)N(C)[C@H]1C[C@H]2c3cc(-c4ccccc4)ccc3CCN2C(=O)[C@H]1[C@H](C)O | inactive: 3.78% | 
O=C(CNC(=O)c1cccc(Br)c1)N/N=C/c1cc(Br)cc(Br)c1O |  | inconclusive: 22.4 µM [inhibitor, partial curve, poor fit]
Cc1cc(N2CCCC2=O)cc(C)c1S(=O)(=O)NCCOc1ccc(C(C)(C)C)cc1 |  | inconclusive: 1.41 µM [inhibitor, full curve, poor fit]
